The source of these data is publication PMC4738311.

No constants are given. Whether binding was seen depends on the method and setting. Binding seen in cells or lysates may run through a third protein. Here binding means that the protein was enriched with, or labelled near, the bait; the list need not be complete. For some assays here: Where a sequence is shown, tags or fusion partners need not be part of it.

For assay [1], the target named is TAP-tagged Pi3k21B (p60), regulatory subunit of drosophila PI3K (drosophila). Put plainly: affinity purification with mass spectrometry; IP of C-terminally TAP-tagged Pi3k21B or Pi3k92e from stable S2R+ cell lysates (basal or insulin 10 and 30 min), in-solution digestion, LC-MS/MS; hits kept after reciprocal BLAST with the human data and subtraction of empty-TAP controls.

In assay [2] the target is T1, TAP-tagged Pi3k92e, catalytic subunit of drosophila PI3K (drosophila) (UniProt P91634).
T1 sequence: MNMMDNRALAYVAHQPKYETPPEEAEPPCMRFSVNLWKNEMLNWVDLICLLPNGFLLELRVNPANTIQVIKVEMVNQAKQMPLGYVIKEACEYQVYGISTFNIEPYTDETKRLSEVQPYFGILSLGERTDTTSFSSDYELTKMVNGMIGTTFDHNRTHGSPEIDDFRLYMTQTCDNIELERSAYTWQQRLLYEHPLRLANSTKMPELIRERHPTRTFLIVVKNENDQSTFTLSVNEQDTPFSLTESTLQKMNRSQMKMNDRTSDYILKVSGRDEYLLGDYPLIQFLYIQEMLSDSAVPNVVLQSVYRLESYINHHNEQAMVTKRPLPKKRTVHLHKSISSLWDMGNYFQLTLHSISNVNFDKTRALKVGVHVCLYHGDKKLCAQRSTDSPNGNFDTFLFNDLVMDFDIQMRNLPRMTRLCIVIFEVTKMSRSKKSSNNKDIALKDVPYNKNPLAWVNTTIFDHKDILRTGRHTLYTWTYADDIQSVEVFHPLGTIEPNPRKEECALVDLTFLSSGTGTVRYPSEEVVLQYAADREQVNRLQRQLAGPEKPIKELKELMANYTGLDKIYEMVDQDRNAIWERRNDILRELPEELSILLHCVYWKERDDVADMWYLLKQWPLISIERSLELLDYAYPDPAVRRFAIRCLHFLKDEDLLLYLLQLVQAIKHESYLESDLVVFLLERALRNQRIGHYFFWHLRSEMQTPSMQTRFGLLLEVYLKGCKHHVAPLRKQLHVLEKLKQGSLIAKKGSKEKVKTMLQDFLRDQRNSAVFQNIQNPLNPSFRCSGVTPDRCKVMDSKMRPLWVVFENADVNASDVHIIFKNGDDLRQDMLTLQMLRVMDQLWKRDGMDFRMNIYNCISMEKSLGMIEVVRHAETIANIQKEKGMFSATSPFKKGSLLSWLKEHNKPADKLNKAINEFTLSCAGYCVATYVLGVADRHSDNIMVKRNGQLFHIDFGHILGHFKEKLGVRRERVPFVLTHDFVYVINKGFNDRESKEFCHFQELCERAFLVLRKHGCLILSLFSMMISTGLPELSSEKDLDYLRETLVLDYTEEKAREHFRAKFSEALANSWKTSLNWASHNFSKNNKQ
The assay is described as above.

B1: drosophila FBpp0083348 (ortholog of human PK3CB) (protein, UniProt P91634 1-1088)
chain: T1 sequence
B1: the binding entry in assay [1] is given as “binds”.

B2: Chico, drosophila ortholog of insulin receptor substrate 1 (protein, UniProt Q9XTN2 1-968)
chain: MASISDDGMALSGYLKKLKTMKKKFFVLYEETSTSAARLEYYDTEKKFLQRAEPKRVIYLKNCFNINRRLDTKHRFVIVLSSRDGGFGIVLENENDLRKWLDKLLVLQRNIANSNGTAHSPYDHVWQVVIQKKGISEKVGITGTYHCCLTSKSLTFVCIGPEKTPNGEDRVASIEILLTTIRRCGHASPQCIFYVELGRQSVLGSGDLWMETDNAAIATNMHNTILSAMSAKTESNTNLINVYQNRPDLSHEPMRKRSSSANEASKPINVNVIQNSQNSLELRSCSSPHNYGFGRERCDSLPTRNGTLSESSNQTYFGSNHGLRSNTISGIRPHSTNKHSNSPTFTMPLRCSESEESSISVDESDDNGSFSHYRLNTRSSETAIPEENIDDFASAELFSKVTEQNVSDENYIPMNPVNPTDAIHEKEKADMQRLEDASLHFNFPEHASEKLAKDFDLDSDNQCCRPIRAYSIGNKVEHLKFNKRLGHLNDTGQNPNRVRAYSVGSKSKIPRCDLQRVVLVEDNKHEFTANRSQSSITKEGTSYGSSANRQKKSTSAPLLSLKNQINSDRMSDLMEIDFSQATNLEKQKFIKNNEIPKYIENVFPKAPRTDSSSLTLHATSQKDIFNGTKLNNTAITSEDGYLEMKPVGNGYTPSSNCLPMKVEKLKLSDYQTAPPLTATAAPVHDLNKISTYNISAEKWREQPSRSEEKKSNSPLNDNTFSSKPTNVESTSKSHDVHSANQIDCEKVCAQSSDKLNNHLADKIVENNNLDIGGHEEKKLVHSISSEDYTQIKDKSNDFTKFNEAGYKILQIKSDSSLISSKLYQKGIHKDNLERSQRLTESVNTIPDNATATAVSSSSLTKFNINSAKPAAAADSRSTGTDPSTPQNILQIKDLNFPSRSSSRISQPELHYASLDLPHCSGQNPAKYLKRGSRESPPVSACPEDGNTYAKIDFDQSDSSSSSSNIFNT
Turning to B2, the binding entry in assay [2] is “binds”.
